Drawing on publication doi:10.1101/2025.10.27.684818, this text covers binding for 10 molecules.

T1: LEA5 rBiFC bait (LEA5 carrying the C-terminal of YFP, pBiFCt-2in1-CC) (Arabidopsis thaliana) (UniProt P42759)
T1 sequence: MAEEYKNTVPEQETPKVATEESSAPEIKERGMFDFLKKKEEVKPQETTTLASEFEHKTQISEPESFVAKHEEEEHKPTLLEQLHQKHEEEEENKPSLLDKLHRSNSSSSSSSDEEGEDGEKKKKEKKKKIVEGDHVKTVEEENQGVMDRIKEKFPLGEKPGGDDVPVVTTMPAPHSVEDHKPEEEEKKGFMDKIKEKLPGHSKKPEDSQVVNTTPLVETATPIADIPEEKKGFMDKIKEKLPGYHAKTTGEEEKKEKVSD

T2: LEA5-Cnluc (BH-lea5-Cnluc) (Arabidopsis thaliana) (UniProt P42759)
T2 sequence: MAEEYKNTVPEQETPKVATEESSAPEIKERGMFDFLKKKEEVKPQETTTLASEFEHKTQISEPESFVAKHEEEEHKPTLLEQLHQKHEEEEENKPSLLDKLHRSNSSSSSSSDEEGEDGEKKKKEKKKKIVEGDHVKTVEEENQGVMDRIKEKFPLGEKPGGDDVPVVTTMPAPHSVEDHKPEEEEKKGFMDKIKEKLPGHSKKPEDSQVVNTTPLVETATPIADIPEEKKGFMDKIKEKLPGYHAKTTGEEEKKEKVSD

B1: OSCA3 rBiFC prey (carrying the N-terminal of YFP) (protein, UniProt Q9C8G5 1-724)
chain: MEFGSFLVSLGTSFVIFVILMLLFTWLSRKSGNAPIYYPNRILKGLEPWEGTSLTRNPFAWMREALTSSEQDVVNLSGVDTAVHFVFLSTVLGIFACSSLLLLPTLLPLAATDNNIKNTKNATDTTSKGTFSQLDNLSMANITKKSSRLWAFLGAVYWISLVTYFFLWKAYKHVSSLRAQALMSADVKPEQFAILVRDMPAPPDGQTQKEFIDSYFREIYPETFYRSLVATENSKVNKIWEKLEGYKKKLARAEAILAATNNRPTNKTGFCGLVGKQVDSIEYYTELINESVAKLETEQKAVLAEKQQTAAVVFFTTRVAAASAAQSLHCQMVDKWTVTEAPEPRQLLWQNLNIKLFSRIIRQYFIYFFVAVTILFYMIPIAFVSAITTLKNLQRIIPFIKPVVEITAIRTVLESFLPQIALIVFLAMLPKLLLFLSKAEGIPSQSHAIRAASGKYFYFSVFNVFIGVTLAGTLFNTVKDIAKNPKLDMIINLLATSLPKSATFFLTYVALKFFIGYGLELSRIIPLIIFHLKKKYLCKTEAEVKEAWYPGDLSYATRVPGDMLILTITFCYSVIAPLILIFGITYFGLGWLVLRNQALKVYVPSYESYGRMWPHIHQRILAALFLFQVVMFGYLGAKTFFYTALVIPLIITSLIFGYVCRQKFYGGFEHTALEVACRELKQSPDLEEIFRAYIPHSLSSHKPEEHEFKGAMSRYQDFNAIAGV
B2: LEA5 rBiFC bait (LEA5 carrying the C-terminal of YFP, pBiFCt-2in1-CC) (protein, UniProt P42759 1-260)
chain: MAEEYKNTVPEQETPKVATEESSAPEIKERGMFDFLKKKEEVKPQETTTLASEFEHKTQISEPESFVAKHEEEEHKPTLLEQLHQKHEEEEENKPSLLDKLHRSNSSSSSSSDEEGEDGEKKKKEKKKKIVEGDHVKTVEEENQGVMDRIKEKFPLGEKPGGDDVPVVTTMPAPHSVEDHKPEEEEKKGFMDKIKEKLPGHSKKPEDSQVVNTTPLVETATPIADIPEEKKGFMDKIKEKLPGYHAKTTGEEEKKEKVSD
B3: PLDα1 rBiFC prey (carrying the N-terminal of YFP) (enzyme, UniProt Q38882 1-810)
chain: MAQHLLHGTLHATIYEVDALHGGGVRQGFLGKILANVEETIGVGKGETQLYATIDLQKARVGRTRKIKNEPKNPKWYESFHIYCAHLASDIIFTVKDDNPIGATLIGRAYIPVDQVINGEEVDQWVEILDNDRNPIQGGSKIHVKLQYFHVEEDRNWNMGIKSAKFPGVPYTFFSQRQGCKVSLYQDAHIPDNFVPRIPLAGGKNYEPQRCWEDIFDAISNAKHLIYITGWSVYAEIALVRDSRRPKPGGDVTIGELLKKKASEGVRVLLLVWDDRTSVDVLKKDGLMATHDEETENFFRGSDVHCILCPRNPDDGGSIVQSLQISTMFTHHQKIVVVDSEMPSRGGSEMRRIVSFVGGIDLCDGRYDTPFHSLFRTLDTVHHDDFHQPNFTGAAITKGGPREPWHDIHSRLEGPIAWDVMYNFEQRWSKQGGKDILVKLRDLSDIIITPSPVMFQEDHDVWNVQLFRSIDGGAAAGFPESPEAAAEAGLVSGKDNIIDRSIQDAYIHAIRRAKDFIYVENQYFLGSSFAWAADGITPEDINALHLIPKELSLKIVSKIEKGEKFRVYVVVPMWPEGLPESGSVQAILDWQRRTMEMMYKDVIQALRAQGLEEDPRNYLTFFCLGNREVKKDGEYEPAEKPDPDTDYMRAQEARRFMIYVHTKMMIVDDEYIIIGSANINQRSMDGARDSEIAMGGYQPHHLSHRQPARGQIHGFRMSLWYEHLGMLDETFLDPSSLECIEKVNRISDKYWDFYSSESLEHDLPGHLLRYPIGVASEGDITELPGFEFFPDTKARILGTKSDYLPPILTT
B4: LEA4 rBiFC prey (carrying the N-terminal of YFP) (protein, UniProt P31168 1-265)
chain: MAEEYKNNVPEHETPTVATEESPATTTEVTDRGLFDFLGKKEEEVKPQETTTLESEFDHKAQISEPELAAEHEEVKENKITLLEELQEKTEEDEENKPSVIEKLHRSNSSSSSSSDEEGEEKKEKKKKIVEGEEDKKGLVEKIKEKLPGHHDKTAEDDVPVSTTIPVPVSESVVEHDHPEEEKKGLVEKIKEKLPGHHDEKAEDSPAVTSTPLVVTEHPVEPTTELPVEHPEEKKGILEKIKEKLPGYHAKTTEEEVKKEKESDD
B5: LEA10 rBiFC prey (carrying the N-terminal of YFP) (protein, UniProt P42763 1-185)
chain: MAEEIKNVPEQEVPKVATEESSAEVTDRGLFDFLGKKKDETKPEETPIASEFEQKVHISEPEPEVKHESLLEKLHRSDSSSSSSSEEEGSDGEKRKKKKEKKKPTTEVEVKEEEKKGFMEKLKEKLPGHKKPEDGSAVAAAPVVVPPPVEEAHPVEKKGILEKIKEKLPGYHPKTTVEEEKKDKE
B6: OSCA3-Nnluc (ZKosca3-Nnluc) (protein, UniProt Q9C8G5 1-724)
chain: MEFGSFLVSLGTSFVIFVILMLLFTWLSRKSGNAPIYYPNRILKGLEPWEGTSLTRNPFAWMREALTSSEQDVVNLSGVDTAVHFVFLSTVLGIFACSSLLLLPTLLPLAATDNNIKNTKNATDTTSKGTFSQLDNLSMANITKKSSRLWAFLGAVYWISLVTYFFLWKAYKHVSSLRAQALMSADVKPEQFAILVRDMPAPPDGQTQKEFIDSYFREIYPETFYRSLVATENSKVNKIWEKLEGYKKKLARAEAILAATNNRPTNKTGFCGLVGKQVDSIEYYTELINESVAKLETEQKAVLAEKQQTAAVVFFTTRVAAASAAQSLHCQMVDKWTVTEAPEPRQLLWQNLNIKLFSRIIRQYFIYFFVAVTILFYMIPIAFVSAITTLKNLQRIIPFIKPVVEITAIRTVLESFLPQIALIVFLAMLPKLLLFLSKAEGIPSQSHAIRAASGKYFYFSVFNVFIGVTLAGTLFNTVKDIAKNPKLDMIINLLATSLPKSATFFLTYVALKFFIGYGLELSRIIPLIIFHLKKKYLCKTEAEVKEAWYPGDLSYATRVPGDMLILTITFCYSVIAPLILIFGITYFGLGWLVLRNQALKVYVPSYESYGRMWPHIHQRILAALFLFQVVMFGYLGAKTFFYTALVIPLIITSLIFGYVCRQKFYGGFEHTALEVACRELKQSPDLEEIFRAYIPHSLSSHKPEEHEFKGAMSRYQDFNAIAGV
B7: LEA8-Nnluc (ZKlea8-Nnluc) (protein, UniProt Q9SLJ2 1-98)
chain: MAGLINKIGDALHIGGGNKEGEHKKEEEHKKHVDEHKSGEHKEGIVDKIKDKIHGGEGKSHDGEGKSHDGEKKKKKDKKEKKHHDDGHHSSSSDSDSD
B8: PLDα1-Nnluc (ZKpldα1-Nnluc) (enzyme, UniProt Q38882 1-810)
chain: MAQHLLHGTLHATIYEVDALHGGGVRQGFLGKILANVEETIGVGKGETQLYATIDLQKARVGRTRKIKNEPKNPKWYESFHIYCAHLASDIIFTVKDDNPIGATLIGRAYIPVDQVINGEEVDQWVEILDNDRNPIQGGSKIHVKLQYFHVEEDRNWNMGIKSAKFPGVPYTFFSQRQGCKVSLYQDAHIPDNFVPRIPLAGGKNYEPQRCWEDIFDAISNAKHLIYITGWSVYAEIALVRDSRRPKPGGDVTIGELLKKKASEGVRVLLLVWDDRTSVDVLKKDGLMATHDEETENFFRGSDVHCILCPRNPDDGGSIVQSLQISTMFTHHQKIVVVDSEMPSRGGSEMRRIVSFVGGIDLCDGRYDTPFHSLFRTLDTVHHDDFHQPNFTGAAITKGGPREPWHDIHSRLEGPIAWDVMYNFEQRWSKQGGKDILVKLRDLSDIIITPSPVMFQEDHDVWNVQLFRSIDGGAAAGFPESPEAAAEAGLVSGKDNIIDRSIQDAYIHAIRRAKDFIYVENQYFLGSSFAWAADGITPEDINALHLIPKELSLKIVSKIEKGEKFRVYVVVPMWPEGLPESGSVQAILDWQRRTMEMMYKDVIQALRAQGLEEDPRNYLTFFCLGNREVKKDGEYEPAEKPDPDTDYMRAQEARRFMIYVHTKMMIVDDEYIIIGSANINQRSMDGARDSEIAMGGYQPHHLSHRQPARGQIHGFRMSLWYEHLGMLDETFLDPSSLECIEKVNRISDKYWDFYSSESLEHDLPGHLLRYPIGVASEGDITELPGFEFFPDTKARILGTKSDYLPPILTT
B9: LEA4-Nnluc (ZKlea4-Nnluc) (protein, UniProt P31168 1-265)
chain: MAEEYKNNVPEHETPTVATEESPATTTEVTDRGLFDFLGKKEEEVKPQETTTLESEFDHKAQISEPELAAEHEEVKENKITLLEELQEKTEEDEENKPSVIEKLHRSNSSSSSSSDEEGEEKKEKKKKIVEGEEDKKGLVEKIKEKLPGHHDKTAEDDVPVSTTIPVPVSESVVEHDHPEEEKKGLVEKIKEKLPGHHDEKAEDSPAVTSTPLVVTEHPVEPTTELPVEHPEEKKGILEKIKEKLPGYHAKTTEEEVKKEKESDD
B10: LEA10 split-luciferase prey (protein, UniProt P42763 1-185)
chain: MAEEIKNVPEQEVPKVATEESSAEVTDRGLFDFLGKKKDETKPEETPIASEFEQKVHISEPEPEVKHESLLEKLHRSDSSSSSSSEEEGSDGEKRKKKKEKKKPTTEVEVKEEEKKGFMEKLKEKLPGHKKPEDGSAVAAAPVVVPPPVEEAHPVEKKGILEKIKEKLPGYHPKTTVEEEKKDKE

No constants are given. Whether binding was seen depends on the method and setting. In cells and extracts the contact can be indirect. Some results given as binding are weak or reduced against the parent protein; the word gives no strength. Where a sequence is shown, tags or fusion partners need not be part of it.

The first assay addresses T1, LEA5 rBiFC bait (LEA5 carrying the C-terminal of YFP, pBiFCt-2in1-CC) (Arabidopsis thaliana). The assay is described as follows: split reporter.
For the molecule B1, the binding entry was “binds”. As to B2, the binding result is reported as “binds”. Consider B3, for which the binding result was “binds”.

B4: the binding entry is “binds”.

Take B5: the binding entry is given as “binds”.

The target in a further assay is T2, LEA5-Cnluc (BH-lea5-Cnluc) (Arabidopsis thaliana). As to the kind of experiment: split reporter.
As to B6, the binding result is on record as “binds”. As to B7, the binding entry is on record as “no binding”. As for B8, the binding result is recorded as “binds”.

Consider B9, for which the binding entry is reported as “binds”. Take B10: the binding entry is recorded as “binds”.
